The experiment deals with TAP-ZC3H41 (Trypanosoma brucei) (UniProt Q386W1). Nature of the experiment: co-IP; TAP-tagged proteins immunoprecipitated on rabbit IgG paramagnetic beads from extracts of UV-irradiated or non-irradiated cells treated with RNase A and DNase I; beads washed with 1 M NaCl, 0.5% IGEPAL; PNK labelling with 32P, SDS-PAGE, PhosphorImager and immunoblot. Background: Immunoblotting shows a protein as a band on a membrane.

Protein sequences, listed by entry. Tags and fused reporters are not part of them. Lines headed by an entry give the natural chain unless they say otherwise; changes in a name come on top.
UniProt Q386W1: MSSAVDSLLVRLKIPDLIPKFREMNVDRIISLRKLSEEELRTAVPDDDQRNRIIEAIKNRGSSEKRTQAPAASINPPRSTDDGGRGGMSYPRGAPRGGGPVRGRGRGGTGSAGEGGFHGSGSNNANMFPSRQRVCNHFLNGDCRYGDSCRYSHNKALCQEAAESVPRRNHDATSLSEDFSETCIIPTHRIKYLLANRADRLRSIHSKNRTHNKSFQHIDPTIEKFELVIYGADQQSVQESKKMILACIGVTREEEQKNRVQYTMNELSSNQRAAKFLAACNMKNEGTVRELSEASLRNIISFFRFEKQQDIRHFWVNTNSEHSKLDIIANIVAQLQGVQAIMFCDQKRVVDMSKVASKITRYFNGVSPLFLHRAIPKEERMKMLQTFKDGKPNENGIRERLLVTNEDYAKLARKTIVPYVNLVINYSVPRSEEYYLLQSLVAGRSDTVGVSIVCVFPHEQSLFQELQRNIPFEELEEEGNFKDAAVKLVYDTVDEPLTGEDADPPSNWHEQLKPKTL
UniProt Q57TY3: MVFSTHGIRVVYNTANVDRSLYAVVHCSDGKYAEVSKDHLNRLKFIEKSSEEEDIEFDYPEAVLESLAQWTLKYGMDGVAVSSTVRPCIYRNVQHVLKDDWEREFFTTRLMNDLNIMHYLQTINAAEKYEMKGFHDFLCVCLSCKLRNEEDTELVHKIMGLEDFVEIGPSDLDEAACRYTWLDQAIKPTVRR

No constants are given. Whether binding was seen depends on the method and setting. Binding seen in cells or lysates may run through a third protein. Binding can be weak; no strength is given.

Take “ZC3H41-associated protein (Z41AP), endogenous (from UniProt Q57TY3)”: the binding entry is given as “binds”.
